Here are results for 1 substance from patent US20250268941A1 (AUTOLUS, published 2025).

Amino acid sequences for entries named in this document (tags omitted). Residues count along the entry.
UniProt Q02223, residues 1-54: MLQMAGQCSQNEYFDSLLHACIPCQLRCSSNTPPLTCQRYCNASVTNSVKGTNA

Results are given in words; binding and its absence hold for the method and conditions named. Some binding calls cover weakened binding; strength is not graded here.

This test deals with D8-41BB-ζ CAR (scFv format). As to the kind of experiment: flow cytometry of primary human T cells transduced with D8-41BB-ζ (scFv), stained with recombinant BCMA-Fc plus anti-human Fc-AF647, against the RQR8 marker [a].

As to “recombinant BCMA-Fc (from UniProt Q02223 1-54) (Fc fusion)”, the binding result was “binds”.
